Data reported in patent US10202469B2, “Sugar chain-attached linker, compound containing sugar chain-attached linker and physiologically active substance or salt thereof, and method for producing same” (Glytech, Inc., priority 2012, dated 2019).
Part of at least one peptide drawing is inferred or uncertain, most often the ends. Some entries share one result that the patent states for a list of compounds.

Experiments:
[1] = Tracing of hydrolysis behavior in aqueous solution by HPLC (hydrolysis half-life)
Method: […] A given amount of each solution was injected to HPLC at appropriate time intervals to trace the hydrolysis reaction. The relative starting material concentration was determined from an HPLC peak area corresponding to the starting material. The relative concentration of the starting material was plotted against incubation time. […] Also, the terminal half-life t1/2 of the starting material was calculated according to the expression t1/2=ln(2)/k (wherein k represents the slope of the linear plot).

[2] = tested on: HLA-A24; conditions: cited from earlier work

Compound	Hydrolysis product found by HPLC analysis ([1]; after hydrolysis test in buffer solution)	Formed hydrolysate 10 relative to the starting material ([1]; pH 4.0, 37° C., after the 48-hour tracing) [%]	Ability to bind to HLA-A24 [2]
CC(=O)N[C@@H]1[C@@H](O)[C@H](O[C@@H]2O[C@H](CO)[C@@H](O[C@@H]3O[C@H](CO[C@H]4O[C@H](CO)[C@@H](O)[C@H](O)[C@@H]4O[C@@H]4O[C@H](CO)[C@@H](O[C@@H]5O[C@H](CO)[C@H](O)[C@H](O)[C@H]5O)[C@H](O)[C@H]4NC(C)=O)[C@@H](O)[C@H](O[C@H]4O[C@H](CO)[C@@H](O)[C@H](O)[C@@H]4O[C@@H]4O[C@H](CO)[C@@H](O[C@@H]5O[C@H](CO)[C@H](O)[C@H](O)[C@H]5O)[C@H](O)[C@H]4NC(C)=O)[C@@H]3O)[C@H](O)[C@H]2NC(C)=O)[C@@H](CO)O[C@H]1NC(=O)CSCC(NC(=O)c1ccc(COC(=O)[C@H](CC(C)C)NC(=O)[C@H](CC(C)C)NC(=O)[C@H](C)NC(=O)[C@H](CC(C)C)NC(=O)[C@H](CC(C)C)NC(=O)[C@H](CC(C)C)NC(=O)CNC(=O)[C@H](Cc2c[nH]c3ccccc23)NC(=O)[C@@H](N)CCCNC(=N)N)cc1)C(N)=O (stereo partly drawn) [compound 1]	gradually hydrolyzed to produce the unmodified HER2(8-16) peptide (compound 10)	≤ 1	–
CC(C)C[C@H](NC(=O)[C@H](CC(C)C)NC(=O)[C@H](C)NC(=O)[C@H](CC(C)C)NC(=O)[C@H](CC(C)C)NC(=O)[C@H](CC(C)C)NC(=O)CNC(=O)[C@H](Cc1c[nH]c2ccccc12)NC(=O)[C@@H](N)CCCNC(=N)N)C(=O)O [compound 10]	–	–	has the ability to bind to HLA-A24
